{"source": "patent US20020165119A1", "about": "“Method of treating inflammatory conditions by inhibiting cytosolic phospholipase A2” (priority 2001, published 2002)", "key": {"[1]": {"system": "OA-sensitized guinea pigs", "experiment": "Antigen-induced bronchoconstriction: specific airway resistance (sRaw) after ovalbumin challenge", "assay_type": "in vivo, guinea pig", "settings": "pre-treatment i.p. 60 min before antigen challenge", "source_text": "Male albino Hartley strain guinea pigs were obtained from Sankyou Laboratory Service (Toyama, Japan), and were quarantined in the Animal Research Center of Kanazawa University for 1 wk before study. All animal procedures in this study complied with the standards specified in the Guideline for the Care and Use of Laboratory Animals at the Takara-machi Campus of Kanazawa University.\n(§1) Guinea pigs weighing 200 to 250 g were actively sensitized by a modification of the method reported by Andersson et al., Int. Arch. Allergy Appl. […] Guinea pigs were pretreated with an i.p. injection of 30 mg/kg of cyclophosphamide. Two days later, the animals were immunized with 2.0 mg of ovalbumin and 100 mg of aluminum hydroxide [Al(OH)3]. A booster injection of 10 μg of OA together with 100 mg of Al(OH)3 was given 3 wk after the primary immunization.\nAnimals were placed in a whole-body, double-chamber plethysmograph for measurement of specific airway resistance (sRaw) by a modification of the method described by Pennock et al., Appl. […] A respiratory mechanics analyzer (model PMUA+SAR, Buxco Electronics, Troy, N.Y.) was used to measure the phase shift between nasal and thoracic airflow and to compute sRaw on a breath by breath basis. A bias flow of air (20 ml/sec) was maintained through the nasal chamber to ensure a constant supply of fresh air to the animal. […]"}, "[2]": {"system": "OA-sensitized guinea pigs", "experiment": "Antigen-induced airway hyperresponsiveness to methacholine (PC200)", "assay_type": "in vivo, guinea pig", "settings": "24 h after OA challenge", "experimental": "as §1\nAntigen-Induced Airway Hyperresponsiveness to Methacholine\nAntigen-induced airway response to methacholine was measured 24 h after challenge. Guinea pigs were anaesthetized by an i.p. injection of 75 mg/kg of sodium pentobarbitone and were placed in a supine position. […] Exp. Path. […] After completion of all surgical procedures, the lungs were overinflated by two times tidal volume for two breaths by closing the outlet port of the respirator. This was done to standardize the volume history of the lungs. […] See Minami et al., Jpn.\nAirway responsiveness to inhaled methacholine was expressed as the dose of methacholine required to provoke a 200% increase (PC200) in the Pao. […] All measurements except for PC200 were expressed as mean±SEM. Variation between three or more groups was analyzed using analysis of variance (ANOVA) followed by Fisher's protected least significant difference. […]"}}, "note": "At least one compound was matched to its structure with a doubt left."}
{"smiles": "CC1=C(C)C(=O)C(CCCCC#CCCCC#CCO)=C(C)C1=O", "note": "[AA-861]", "values": [{"measurement": "increase in sRaw caused by OA challenge (immediate bronchoconstriction)", "setting": "[1]", "value": "not attenuated"}, {"measurement": "antigen (ovalbumin)-induced methacholine airway hyperresponsiveness", "setting": "[2]", "value": "neither indomethacin, a COX inhibitor, nor AA861, a 5-LO inhibitor, blocked"}]}
